According to the supplement of paper PMC10849652:
Some of the results follow.

Chains of the proteins cited; added tags and fusions are not shown. Lines headed by an entry give the natural chain unless they say otherwise; changes in a name come on top.
UniProt P38435: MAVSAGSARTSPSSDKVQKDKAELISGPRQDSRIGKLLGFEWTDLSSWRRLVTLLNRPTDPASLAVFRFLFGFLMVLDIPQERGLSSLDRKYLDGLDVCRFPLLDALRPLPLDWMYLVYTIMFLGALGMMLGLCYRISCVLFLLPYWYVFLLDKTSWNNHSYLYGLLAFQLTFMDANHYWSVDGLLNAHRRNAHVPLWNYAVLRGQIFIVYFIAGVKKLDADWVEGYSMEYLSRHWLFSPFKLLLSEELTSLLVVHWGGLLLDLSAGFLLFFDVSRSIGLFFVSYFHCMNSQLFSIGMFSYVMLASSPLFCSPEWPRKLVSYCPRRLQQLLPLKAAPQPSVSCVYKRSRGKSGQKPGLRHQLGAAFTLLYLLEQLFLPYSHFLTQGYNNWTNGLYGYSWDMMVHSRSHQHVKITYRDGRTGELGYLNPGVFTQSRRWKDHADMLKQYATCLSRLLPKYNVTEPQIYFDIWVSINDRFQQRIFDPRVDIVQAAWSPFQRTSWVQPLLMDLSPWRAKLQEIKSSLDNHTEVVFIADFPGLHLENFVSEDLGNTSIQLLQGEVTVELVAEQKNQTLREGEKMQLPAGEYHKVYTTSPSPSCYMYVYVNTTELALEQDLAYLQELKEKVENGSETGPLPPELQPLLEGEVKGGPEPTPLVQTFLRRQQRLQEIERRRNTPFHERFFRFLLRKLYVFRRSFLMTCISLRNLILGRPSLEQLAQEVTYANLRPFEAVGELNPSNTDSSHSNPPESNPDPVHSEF
UniProt P62873, whole entry, looked up: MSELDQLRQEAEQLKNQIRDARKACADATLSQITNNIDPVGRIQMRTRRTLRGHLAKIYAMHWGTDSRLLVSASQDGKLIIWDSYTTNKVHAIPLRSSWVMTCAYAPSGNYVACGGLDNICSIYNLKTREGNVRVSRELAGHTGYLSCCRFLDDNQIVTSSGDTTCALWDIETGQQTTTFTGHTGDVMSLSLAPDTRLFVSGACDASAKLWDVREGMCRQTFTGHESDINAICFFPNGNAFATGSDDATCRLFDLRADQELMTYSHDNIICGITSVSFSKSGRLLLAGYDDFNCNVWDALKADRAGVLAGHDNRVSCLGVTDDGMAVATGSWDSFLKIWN
UniProt Q13439: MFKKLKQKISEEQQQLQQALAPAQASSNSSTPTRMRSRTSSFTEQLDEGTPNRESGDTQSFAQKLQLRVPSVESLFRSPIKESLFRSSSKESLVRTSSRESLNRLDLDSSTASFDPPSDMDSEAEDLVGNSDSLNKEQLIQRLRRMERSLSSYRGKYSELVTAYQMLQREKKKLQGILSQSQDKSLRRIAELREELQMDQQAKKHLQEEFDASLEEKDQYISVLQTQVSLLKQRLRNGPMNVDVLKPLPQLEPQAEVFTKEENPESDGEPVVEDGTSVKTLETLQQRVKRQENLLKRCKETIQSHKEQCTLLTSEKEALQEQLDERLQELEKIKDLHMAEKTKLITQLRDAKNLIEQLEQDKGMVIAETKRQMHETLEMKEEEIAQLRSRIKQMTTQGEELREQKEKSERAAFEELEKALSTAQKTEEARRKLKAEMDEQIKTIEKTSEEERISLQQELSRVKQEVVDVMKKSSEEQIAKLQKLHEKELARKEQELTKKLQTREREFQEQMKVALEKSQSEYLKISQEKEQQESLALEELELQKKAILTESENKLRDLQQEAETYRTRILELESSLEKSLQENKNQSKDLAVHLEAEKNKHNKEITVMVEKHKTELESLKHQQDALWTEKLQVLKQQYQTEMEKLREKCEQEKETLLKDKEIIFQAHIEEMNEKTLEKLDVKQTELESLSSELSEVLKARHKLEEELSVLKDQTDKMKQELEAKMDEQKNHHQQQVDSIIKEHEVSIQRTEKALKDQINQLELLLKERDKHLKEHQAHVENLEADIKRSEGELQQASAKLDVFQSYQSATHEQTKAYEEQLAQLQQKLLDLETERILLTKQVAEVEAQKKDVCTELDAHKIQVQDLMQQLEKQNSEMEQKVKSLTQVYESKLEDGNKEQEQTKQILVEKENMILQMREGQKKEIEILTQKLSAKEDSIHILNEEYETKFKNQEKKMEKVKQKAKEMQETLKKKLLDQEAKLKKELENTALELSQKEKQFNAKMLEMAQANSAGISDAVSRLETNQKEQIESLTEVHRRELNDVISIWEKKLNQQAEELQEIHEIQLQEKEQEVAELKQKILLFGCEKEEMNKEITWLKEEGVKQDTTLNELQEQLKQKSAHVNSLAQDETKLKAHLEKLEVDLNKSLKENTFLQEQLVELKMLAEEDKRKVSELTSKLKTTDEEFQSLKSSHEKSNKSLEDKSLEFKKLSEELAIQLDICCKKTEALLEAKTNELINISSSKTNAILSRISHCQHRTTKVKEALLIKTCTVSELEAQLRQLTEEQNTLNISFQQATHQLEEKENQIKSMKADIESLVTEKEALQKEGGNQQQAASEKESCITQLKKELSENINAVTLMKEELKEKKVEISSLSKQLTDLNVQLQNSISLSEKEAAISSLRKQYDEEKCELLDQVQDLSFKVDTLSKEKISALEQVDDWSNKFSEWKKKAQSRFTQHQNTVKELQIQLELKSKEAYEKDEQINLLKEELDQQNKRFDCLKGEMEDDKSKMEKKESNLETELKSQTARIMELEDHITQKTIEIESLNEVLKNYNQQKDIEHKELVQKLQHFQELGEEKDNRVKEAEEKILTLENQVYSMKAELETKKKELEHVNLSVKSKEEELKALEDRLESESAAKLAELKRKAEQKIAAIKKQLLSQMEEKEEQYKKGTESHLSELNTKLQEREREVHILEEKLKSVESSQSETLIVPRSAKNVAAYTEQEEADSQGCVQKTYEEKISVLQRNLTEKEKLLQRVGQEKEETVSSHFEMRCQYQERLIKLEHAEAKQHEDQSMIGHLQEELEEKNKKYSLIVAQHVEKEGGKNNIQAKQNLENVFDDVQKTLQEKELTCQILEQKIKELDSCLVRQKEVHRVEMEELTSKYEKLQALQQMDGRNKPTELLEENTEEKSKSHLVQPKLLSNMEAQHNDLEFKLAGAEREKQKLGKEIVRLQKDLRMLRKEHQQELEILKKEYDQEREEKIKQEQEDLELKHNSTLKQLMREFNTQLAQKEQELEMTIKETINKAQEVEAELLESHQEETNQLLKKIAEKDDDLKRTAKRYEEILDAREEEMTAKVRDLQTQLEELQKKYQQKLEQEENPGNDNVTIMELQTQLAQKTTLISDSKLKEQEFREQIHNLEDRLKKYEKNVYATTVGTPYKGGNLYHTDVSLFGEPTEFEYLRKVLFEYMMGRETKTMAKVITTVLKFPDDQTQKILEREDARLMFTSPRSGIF
UniProt Q49A26: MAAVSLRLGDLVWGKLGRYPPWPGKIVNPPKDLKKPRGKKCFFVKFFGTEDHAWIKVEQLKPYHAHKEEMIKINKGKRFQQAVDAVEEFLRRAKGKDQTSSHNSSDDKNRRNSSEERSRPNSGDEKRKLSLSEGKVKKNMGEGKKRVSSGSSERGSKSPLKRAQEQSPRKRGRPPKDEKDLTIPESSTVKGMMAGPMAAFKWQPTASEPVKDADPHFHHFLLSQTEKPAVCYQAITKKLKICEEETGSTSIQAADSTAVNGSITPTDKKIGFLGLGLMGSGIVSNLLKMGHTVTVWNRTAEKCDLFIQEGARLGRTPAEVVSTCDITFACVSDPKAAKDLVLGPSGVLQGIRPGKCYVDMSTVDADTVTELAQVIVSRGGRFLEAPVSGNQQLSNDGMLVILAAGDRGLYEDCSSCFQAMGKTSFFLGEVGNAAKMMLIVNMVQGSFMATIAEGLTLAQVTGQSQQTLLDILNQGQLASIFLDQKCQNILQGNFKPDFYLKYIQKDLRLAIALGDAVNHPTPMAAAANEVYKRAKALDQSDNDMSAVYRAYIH
UniProt Q7Z2K8: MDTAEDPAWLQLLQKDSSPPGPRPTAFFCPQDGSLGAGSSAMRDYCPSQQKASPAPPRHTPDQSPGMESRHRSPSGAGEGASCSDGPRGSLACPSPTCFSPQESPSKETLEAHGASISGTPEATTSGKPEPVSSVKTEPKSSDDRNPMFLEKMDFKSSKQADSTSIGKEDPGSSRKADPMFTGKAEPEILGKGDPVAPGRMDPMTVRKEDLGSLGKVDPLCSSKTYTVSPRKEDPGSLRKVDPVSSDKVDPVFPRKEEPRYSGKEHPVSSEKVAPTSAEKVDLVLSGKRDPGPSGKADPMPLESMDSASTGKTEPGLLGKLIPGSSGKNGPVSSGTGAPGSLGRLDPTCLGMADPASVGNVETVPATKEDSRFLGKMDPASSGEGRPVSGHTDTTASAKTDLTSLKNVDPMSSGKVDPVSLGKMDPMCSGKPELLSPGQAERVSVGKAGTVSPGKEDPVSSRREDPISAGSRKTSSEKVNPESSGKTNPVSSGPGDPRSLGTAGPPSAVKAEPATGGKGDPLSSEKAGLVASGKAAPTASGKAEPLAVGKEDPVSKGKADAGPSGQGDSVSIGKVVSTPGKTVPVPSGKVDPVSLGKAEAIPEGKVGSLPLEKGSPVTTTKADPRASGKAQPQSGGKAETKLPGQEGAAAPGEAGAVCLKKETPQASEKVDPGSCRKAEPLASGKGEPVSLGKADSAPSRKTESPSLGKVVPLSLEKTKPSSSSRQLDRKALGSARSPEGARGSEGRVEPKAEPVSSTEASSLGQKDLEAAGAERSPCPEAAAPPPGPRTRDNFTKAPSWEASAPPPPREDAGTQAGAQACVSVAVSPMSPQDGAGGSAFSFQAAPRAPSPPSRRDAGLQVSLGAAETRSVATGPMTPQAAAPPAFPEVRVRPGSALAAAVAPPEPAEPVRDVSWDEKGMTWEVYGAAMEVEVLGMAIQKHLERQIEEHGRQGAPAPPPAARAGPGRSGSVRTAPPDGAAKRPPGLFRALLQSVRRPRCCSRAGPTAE
UniProt Q9UJJ9: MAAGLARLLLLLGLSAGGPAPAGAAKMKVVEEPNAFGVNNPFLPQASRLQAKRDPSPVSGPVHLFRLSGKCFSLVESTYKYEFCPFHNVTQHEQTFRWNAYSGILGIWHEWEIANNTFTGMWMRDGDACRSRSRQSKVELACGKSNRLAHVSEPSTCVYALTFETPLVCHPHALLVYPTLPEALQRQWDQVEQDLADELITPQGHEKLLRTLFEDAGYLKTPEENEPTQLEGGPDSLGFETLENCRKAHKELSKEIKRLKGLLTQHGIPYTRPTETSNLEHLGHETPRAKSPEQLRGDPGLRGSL
UniProt P21695: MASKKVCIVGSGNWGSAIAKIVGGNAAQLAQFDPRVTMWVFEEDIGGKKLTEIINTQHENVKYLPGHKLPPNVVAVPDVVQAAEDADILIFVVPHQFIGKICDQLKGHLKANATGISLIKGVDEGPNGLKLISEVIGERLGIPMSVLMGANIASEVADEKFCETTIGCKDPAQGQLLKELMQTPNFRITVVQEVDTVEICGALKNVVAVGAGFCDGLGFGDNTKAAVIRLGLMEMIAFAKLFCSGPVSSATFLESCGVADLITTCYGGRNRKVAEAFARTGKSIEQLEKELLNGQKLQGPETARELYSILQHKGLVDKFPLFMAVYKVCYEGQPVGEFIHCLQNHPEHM
UniProt Q8TF64: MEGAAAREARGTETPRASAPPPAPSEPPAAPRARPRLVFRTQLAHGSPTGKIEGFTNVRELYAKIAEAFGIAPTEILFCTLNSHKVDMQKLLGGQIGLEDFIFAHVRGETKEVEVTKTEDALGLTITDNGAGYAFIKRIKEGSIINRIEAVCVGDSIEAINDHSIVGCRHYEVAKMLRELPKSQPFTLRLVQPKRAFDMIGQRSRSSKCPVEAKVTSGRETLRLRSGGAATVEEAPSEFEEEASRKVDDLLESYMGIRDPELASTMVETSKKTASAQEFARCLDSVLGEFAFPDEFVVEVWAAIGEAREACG
UniProt Q86UL3: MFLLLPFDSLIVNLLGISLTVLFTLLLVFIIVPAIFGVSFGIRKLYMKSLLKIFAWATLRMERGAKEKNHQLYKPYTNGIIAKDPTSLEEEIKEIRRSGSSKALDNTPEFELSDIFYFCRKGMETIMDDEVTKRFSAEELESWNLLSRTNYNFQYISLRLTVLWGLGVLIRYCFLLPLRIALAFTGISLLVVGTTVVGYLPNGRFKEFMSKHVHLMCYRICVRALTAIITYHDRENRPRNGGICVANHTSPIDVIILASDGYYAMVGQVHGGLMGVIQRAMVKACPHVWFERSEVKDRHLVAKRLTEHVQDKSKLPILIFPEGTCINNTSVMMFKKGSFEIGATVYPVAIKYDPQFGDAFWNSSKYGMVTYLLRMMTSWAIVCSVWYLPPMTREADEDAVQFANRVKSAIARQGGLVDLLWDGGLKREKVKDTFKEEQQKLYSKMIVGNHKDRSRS
UniProt Q9Y248: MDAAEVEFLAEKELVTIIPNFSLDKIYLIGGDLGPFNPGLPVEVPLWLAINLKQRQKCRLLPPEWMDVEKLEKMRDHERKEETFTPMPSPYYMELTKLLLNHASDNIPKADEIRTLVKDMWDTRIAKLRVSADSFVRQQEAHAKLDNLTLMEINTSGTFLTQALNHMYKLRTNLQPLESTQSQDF

Assays:
Assay in all cases: log2 fold change, soluble protein after heating vs DMSO (PISA); higher = thermal stabilisation; K562 lysate, 10 uM; active = over 0.2 and 3.5 SD of the protein, either way, in both replicates (recomputed)
[1] = compound: CS(=O)(=O)CCNCc1ccc(-c2ccc3ncnc(Nc4ccc(OCc5cccc(F)c5)c(Cl)c4)c3c2)o1 [lapatinib]
How it was run: (§1)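 Log-two fold change in thermal stability relative to solvent controls is reported from duplicates. For each sample, crude K562 extract from dounce-homogenised pellets in PBS pH 7.4 with 1 mM MgCl2, at 1 mg/mL protein, was treated with 10 μM compound for 30 min. Aliquots heated for 3 min across 48°C-58°C were pooled, brought to 0.5% NP-40 at 4°C and cleared at 21,000xg for 90 min. The supernatant was quantified by TMTpro 16plex LC-MS/MS with channel sums equalised.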

[2] = compound: CS(=O)(=O)N1CCN(Cc2cc3nc(-c4cccc5[nH]ncc45)nc(N4CCOCC4)c3s2)CC1 [pictilisib]
How it was run: as §1

[3] = compound: C[C@@H](Oc1cc(-c2cnn(C3CCNCC3)c2)cnc1N)c1c(Cl)ccc(F)c1Cl [crizotinib]
How it was run: as §1

[4] = compound: C[C@H](C1=CC=C(C=C1)C(=O)NC2=C3C=CNC3=NC=C2)N
How it was run: as §1

[5] = compound: C[C@H](Nc1ncnc2nc[nH]c12)c1cc2cccc(Cl)c2c(=O)n1-c1ccccc1 [duvelisib]
How it was run: as §1

[6] = compound: Cc1cc(Nc2cc(CN3CCOCC3)c3nc(C)c(Cc4ccc(Cl)cc4F)n3n2)n[nH]1 [gandotinib]
How it was run: as §1

[7] = compound: Cc1cc(Nc2cc(N3CCN(C)CC3)nc(Sc3ccc(NC(=O)C4CC4)cc3)n2)n[nH]1 [tozasertib]
How it was run: as §1

[8] = compound: Cc1ccc(-n2nc(C(C)(C)C)cc2NC(=O)Nc2ccc(OCCN3CCOCC3)c3ccccc23)cc1 [doramapimod]
How it was run: as §1

[9] = compound: Cc1ccc(NC(=O)c2ccc(CN3CC[C@H](N(C)C)C3)c(C(F)(F)F)c2)cc1Nc1nccc(-c2cncnc2)n1 [bafetinib]
How it was run: as §1

[10] = compound: Cc1cccc(CC(=O)N2CCc3c2ccc(-c2cn(C)c4ncnc(N)c24)c3F)n1
How it was run: as §1

Measured: log2 fold change

GOT1 (UniProt P17174)
inactive: [1] -0.012 | [2] -0.023 | [3] 0.011 | [4] -0.022 | [5] -0.007 | [6] 0.051 | [7] 0.007 | [8] -0.007 | [9] 0.111 | [10] -0.009

GLUD1 (UniProt P00367)
inactive: [1] 0.007 | [2] 0.142 | [3] -0.021 | [4] -0.03 | [5] -0.029 | [6] 0.079 | [7] 0 | [8] 0.014 | [9] 0.061 | [10] -0.002

GGCX (UniProt P38435)
inactive: [1] -0.159 | [2] 0.024 | [3] -0.017 | [4] 0.089 | [5] 0.008 | [6] -0.232 | [7] 0.093 | [8] -0.051 | [9] -0.027 | [10] 0.039

GNL1 (UniProt P36915)
inactive: [1] -0.037 | [2] -0.031 | [3] -0.056 | [4] 0.031 | [5] -0.017 | [6] -0.087 | [7] 0.021 | [8] -0.015 | [9] 0.009 | [10] 0.028

Pulled one by one from the entries so far (2):
GOT1 (UniProt P17174)
inactive: [1] -0.012 | [2] -0.023 | [3] 0.011 | [4] -0.022 | [5] -0.007 | [6] 0.051 | [7] 0.007 | [8] -0.007 | [9] 0.111 | [10] -0.009

GGCX (UniProt P38435)
inactive: [1] -0.159 | [2] 0.024 | [3] -0.017 | [4] 0.089 | [5] 0.008 | [6] -0.232 | [7] 0.093 | [8] -0.051 | [9] -0.027 | [10] 0.039

Later entries.

GNB1 (UniProt P62873)
inactive: [1] 0.054 | [2] -0.022 | [3] -0.106 | [4] -0.114 | [5] 0.003 | [6] 0.04 | [7] -0.023 | [8] 0.079 | [9] 0.123 | [10] 0.04

GLE1 (UniProt Q53GS7)
inactive: [1] -0.017 | [2] 0.178 | [3] -0.089 | [4] -0.247 | [5] -0.107 | [6] -0.135 | [7] 0.057 | [8] -0.062 | [9] 0.198 | [10] 0.027

GOLGB1 (UniProt Q14789)
inactive: [1] -0.007 | [2] -0.028 | [3] -0.053 | [4] -0.024 | [5] -0.014 | [6] -0.008 | [7] 0.008 | [8] 0.024 | [9] -0.032 | [10] 0.043

GPD2 (UniProt P43304)
inactive: [1] 0.012 | [2] -0.034 | [3] 0.003 | [4] 0.024 | [5] 0.002 | [6] 0.007 | [7] 0.005 | [8] 0.011 | [9] 0.003 | [10] 0.01

GLUL (UniProt P15104)
active: [4] 0.213
inactive: [1] 0.04 | [2] 0.015 | [3] 0.066 | [5] 0.019 | [6] -0.093 | [7] -0.026 | [8] 0.014 | [9] 0.013 | [10] -0.147

GOT2 (UniProt P00505)
inactive: [1] 0.012 | [2] 0.009 | [3] 0.005 | [4] 0.079 | [5] -0.014 | [6] -0.005 | [7] 0.013 | [8] -0.025 | [9] 0.13 | [10] -0.056

GOLGA1 (UniProt Q92805)
inactive: [2] 0.007 | [3] 0.012 | [4] 0.056 | [5] -0.101 | [6] 0.024 | [7] -0.087 | [8] 0.001 | [9] -0.066 | [10] -0.025
active: [1] -0.406

GOLGA4 isoform 5 (UniProt Q13439)
inactive: [1] -0.005 | [2] -0.025 | [3] -0.016 | [4] -0.1 | [5] 0.016 | [6] 0.008 | [7] 0.004 | [8] 0.011 | [9] -0.034 | [10] 0.057

GPD1L (UniProt Q8N335)
inactive: [1] 0.009 | [2] 0 | [3] -0.006 | [4] -0.006 | [5] 0.019 | [6] -0.067 | [7] 0.028 | [8] -0.006 | [9] 0.029 | [10] 0.05

GLYR1 (UniProt Q49A26)
inactive: [1] 0.053 | [2] 0.045 | [3] -0.058 | [4] 0.019 | [5] -0.079 | [6] 0.045 | [7] -0.044 | [8] 0.11 | [9] -0.042 | [10] -0.04

GGACT (UniProt Q9BVM4)
inactive: [1] -0.029 | [2] 0.026 | [3] 0.017 | [4] -0.054 | [5] -0.013 | [6] 0.041 | [7] 0.058 | [8] 0 | [9] 0.016 | [10] -0.072

GPRIN1 (UniProt Q7Z2K8)
inactive: [1] -0.013 | [2] -0.004 | [3] -0.015 | [4] 0.029 | [5] -0.001 | [6] 0.019 | [7] 0.013 | [8] 0.007 | [9] 0.003 | [10] -0.037

GNPTG (UniProt Q9UJJ9)
inactive: [1] -0.104 | [2] -0.078 | [3] -0.077 | [4] -0.031 | [5] 0.093 | [6] -0.038 | [7] -0.195 | [8] 0.017 | [9] 0.168 | [10] 0.026

GK (UniProt P32189)
inactive: [1] -0.016 | [2] -0.009 | [3] 0.021 | [4] -0.022 | [5] 0.027 | [6] 0.055 | [7] 0.007 | [8] 0.048 | [9] -0.038 | [10] 0.022

GNB1L (UniProt Q9BYB4)
inactive: [1] 0.021 | [2] -0.009 | [3] -0.031 | [4] -0.016 | [5] -0.007 | [6] 0.041 | [7] -0.02 | [8] 0.142 | [9] -0.02 | [10] 0.047

GMIP (UniProt Q9P107)
inactive: [1] -0.046 | [2] -0.015 | [3] -0.006 | [4] 0.029 | [5] -0.005 | [6] -0.024 | [7] -0.014 | [8] -0.049 | [9] -0.068 | [10] 0.041

GOLPH3 (UniProt Q9H4A6)
inactive: [1] 0.007 | [2] -0.013 | [3] -0.123 | [4] -0.049 | [5] 0.005 | [6] 0.034 | [7] 0.025 | [8] 0.031 | [9] -0.073 | [10] 0.045

GNPDA1 (UniProt P46926)
inactive: [1] -0.005 | [2] -0.006 | [3] 0.035 | [4] -0.056 | [5] -0.009 | [6] 0.012 | [7] 0 | [8] -0.02 | [9] -0.013 | [10] -0.005

GNB2 (UniProt P62879)
inactive: [1] -0.008 | [2] -0.056 | [3] -0.042 | [4] -0.054 | [5] -0.005 | [6] 0.036 | [7] -0.034 | [8] 0.038 | [9] -0.051 | [10] 0.001

GPSM2 (UniProt P81274)
inactive: [1] -0.111 | [2] 0.013 | [3] -0.082 | [4] -0.313 | [5] -0.071 | [6] 0.252 | [7] 0.042 | [8] -0.014 | [9] -0.091 | [10] 0.244

GON4L (UniProt Q3T8J9)
inactive: [1] 0.006 | [2] -0.04 | [3] -0.05 | [4] -0.066 | [5] -0.045 | [6] 0.391 | [7] -0.054 | [8] -0.011 | [9] -0.07 | [10] 0.01

GPD1 (UniProt P21695)
inactive: [1] -0.152 | [2] -0.023 | [3] -0.202 | [4] 0.022 | [5] 0.124 | [6] 0.072 | [7] -0.059 | [8] 0.219 | [9] -0.187 | [10] 0.038

GGA3 (UniProt Q9NZ52)
inactive: [1] 0.02 | [2] 0 | [3] -0.042 | [4] -0.023 | [5] 0 | [6] -0.012 | [7] 0.074 | [8] 0.034 | [9] 0.047 | [10] 0.053

GOLIM4 (UniProt O00461)
inactive: [1] 0.016 | [2] -0.042 | [3] 0.007 | [4] 0.129 | [5] -0.033 | [6] -0.074 | [7] -0.01 | [8] 0.028 | [9] -0.032 | [10] -0.082

GGPS1 (UniProt O95749)
inactive: [1] 0.019 | [2] 0.004 | [3] 0.035 | [4] -0.003 | [5] -0.028 | [6] 0.027 | [7] 0.038 | [8] 0.011 | [9] 0.036 | [10] -0.024

GIPC3 (UniProt Q8TF64)
inactive: [1] 0.157 | [2] -0.055 | [3] -0.103 | [4] -0.033 | [5] 0.05 | [6] 0.124 | [7] -0.097 | [8] 0 | [9] -0.035 | [10] 0.083

GPAT4 (UniProt Q86UL3)
inactive: [1] -0.014 | [2] -0.014 | [3] 0.049 | [4] -0.092 | [5] 0.032 | [6] 0.062 | [7] 0.039 | [8] -0.017 | [9] -0.118 | [10] 0.104

GINS2 (UniProt Q9Y248)
inactive: [1] 0.063 | [2] -0.011 | [3] -0.049 | [4] 0.004 | [5] -0.055 | [6] -0.035 | [7] 0.056 | [8] -0.025 | [9] -0.012 | [10] 0.056

GHITM (UniProt Q9H3K2)
inactive: [1] -0.021 | [2] -0.051 | [3] -0.001 | [4] -0.012 | [5] 0.009 | [6] 0.014 | [7] -0.024 | [8] -0.009 | [9] -0.001 | [10] 0.013
